From paper PMC3879260
Results are given in words; binding and its absence hold for the method and conditions named. Binding seen in cells or lysates may run through a third protein. These calls come from enrichment with a bait or labelling near it, and not all partners need be listed. Sequences can lack the tags named with a protein.

The chains behind the UniProt entries cited, without tags or fusion partners.
UniProt P19659: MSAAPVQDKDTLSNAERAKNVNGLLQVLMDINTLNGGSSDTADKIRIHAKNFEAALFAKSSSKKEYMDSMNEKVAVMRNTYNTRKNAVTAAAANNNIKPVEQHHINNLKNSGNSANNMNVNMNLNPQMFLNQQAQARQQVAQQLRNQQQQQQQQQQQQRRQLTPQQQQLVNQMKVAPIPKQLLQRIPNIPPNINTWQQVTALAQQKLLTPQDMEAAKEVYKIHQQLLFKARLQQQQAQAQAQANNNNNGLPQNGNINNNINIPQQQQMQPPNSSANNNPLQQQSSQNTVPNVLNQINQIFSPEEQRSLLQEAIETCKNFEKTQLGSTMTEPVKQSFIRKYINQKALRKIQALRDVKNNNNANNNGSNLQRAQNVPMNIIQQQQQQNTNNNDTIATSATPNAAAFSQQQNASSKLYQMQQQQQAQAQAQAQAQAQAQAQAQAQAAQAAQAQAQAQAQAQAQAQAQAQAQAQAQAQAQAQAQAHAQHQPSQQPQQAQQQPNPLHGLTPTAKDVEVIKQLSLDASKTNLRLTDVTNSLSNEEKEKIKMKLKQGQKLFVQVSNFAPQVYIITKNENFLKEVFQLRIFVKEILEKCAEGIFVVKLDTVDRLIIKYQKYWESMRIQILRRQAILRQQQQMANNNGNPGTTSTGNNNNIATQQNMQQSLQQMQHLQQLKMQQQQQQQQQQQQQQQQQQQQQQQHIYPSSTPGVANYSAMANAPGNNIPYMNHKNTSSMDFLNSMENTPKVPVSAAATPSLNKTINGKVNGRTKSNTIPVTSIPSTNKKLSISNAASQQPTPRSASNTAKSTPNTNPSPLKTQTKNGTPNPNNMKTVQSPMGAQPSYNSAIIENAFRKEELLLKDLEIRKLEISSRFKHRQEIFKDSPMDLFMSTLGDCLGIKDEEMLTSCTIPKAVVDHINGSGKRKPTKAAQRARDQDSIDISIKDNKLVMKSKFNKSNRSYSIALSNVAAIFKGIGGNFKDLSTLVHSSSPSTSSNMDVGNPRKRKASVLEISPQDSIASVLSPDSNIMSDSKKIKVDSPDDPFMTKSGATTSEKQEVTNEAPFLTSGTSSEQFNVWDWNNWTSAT
UniProt Q04636: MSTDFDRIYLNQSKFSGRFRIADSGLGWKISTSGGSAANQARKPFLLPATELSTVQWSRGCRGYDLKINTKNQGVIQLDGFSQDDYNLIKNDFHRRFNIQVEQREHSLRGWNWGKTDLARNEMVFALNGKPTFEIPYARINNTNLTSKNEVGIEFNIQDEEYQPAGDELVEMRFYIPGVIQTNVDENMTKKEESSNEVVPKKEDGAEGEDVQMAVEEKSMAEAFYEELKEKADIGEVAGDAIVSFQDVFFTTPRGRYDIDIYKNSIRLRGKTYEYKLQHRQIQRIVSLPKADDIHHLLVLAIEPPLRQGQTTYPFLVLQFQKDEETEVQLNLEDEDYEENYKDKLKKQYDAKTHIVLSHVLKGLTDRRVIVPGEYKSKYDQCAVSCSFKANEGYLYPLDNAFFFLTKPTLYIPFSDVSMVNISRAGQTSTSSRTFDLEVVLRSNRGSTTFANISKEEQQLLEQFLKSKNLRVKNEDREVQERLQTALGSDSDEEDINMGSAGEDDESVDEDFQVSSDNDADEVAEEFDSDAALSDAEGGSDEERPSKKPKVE

Target: T1, GST-Pdr1 activation domain (amino acids 966-1068) (S. cerevisiae) (UniProt P12383)
T1 sequence: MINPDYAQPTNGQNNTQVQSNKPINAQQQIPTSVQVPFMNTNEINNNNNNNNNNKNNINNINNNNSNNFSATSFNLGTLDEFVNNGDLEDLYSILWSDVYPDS
Experiment: affinity purification with mass spectrometry; glutathione-Sepharose-bound GST-Pdr1-AD incubated 3 h at 4°C with yeast extract (lysis buffer 50 mM Tris-HCl pH 8.0, 400 mM NaCl) pre-incubated with GST beads; washes with 250 mM KCl buffer, then 150 mM NaCl; elution with 0.3% sarkosyl; gel bands identified by LC-MS/MS; only the target purified

binding	Substance
binds	Gal11 subunit of Mediator (from UniProt P19659 1-1081)
binds	Pob3 subunit of FACT (from UniProt Q04636 1-552)
